Measured values as given in the supplement of paper PMC7666118.
Some of the results follow.

Chains of the proteins cited; added tags and fusions are not shown. Lines headed by an entry give the natural chain unless they say otherwise; changes in a name come on top.
UniProt Q96C90: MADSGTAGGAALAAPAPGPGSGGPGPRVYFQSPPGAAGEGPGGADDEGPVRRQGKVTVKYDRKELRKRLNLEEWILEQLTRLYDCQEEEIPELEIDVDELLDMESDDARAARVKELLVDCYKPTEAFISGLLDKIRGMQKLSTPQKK
UniProt Q8TCU6, whole entry: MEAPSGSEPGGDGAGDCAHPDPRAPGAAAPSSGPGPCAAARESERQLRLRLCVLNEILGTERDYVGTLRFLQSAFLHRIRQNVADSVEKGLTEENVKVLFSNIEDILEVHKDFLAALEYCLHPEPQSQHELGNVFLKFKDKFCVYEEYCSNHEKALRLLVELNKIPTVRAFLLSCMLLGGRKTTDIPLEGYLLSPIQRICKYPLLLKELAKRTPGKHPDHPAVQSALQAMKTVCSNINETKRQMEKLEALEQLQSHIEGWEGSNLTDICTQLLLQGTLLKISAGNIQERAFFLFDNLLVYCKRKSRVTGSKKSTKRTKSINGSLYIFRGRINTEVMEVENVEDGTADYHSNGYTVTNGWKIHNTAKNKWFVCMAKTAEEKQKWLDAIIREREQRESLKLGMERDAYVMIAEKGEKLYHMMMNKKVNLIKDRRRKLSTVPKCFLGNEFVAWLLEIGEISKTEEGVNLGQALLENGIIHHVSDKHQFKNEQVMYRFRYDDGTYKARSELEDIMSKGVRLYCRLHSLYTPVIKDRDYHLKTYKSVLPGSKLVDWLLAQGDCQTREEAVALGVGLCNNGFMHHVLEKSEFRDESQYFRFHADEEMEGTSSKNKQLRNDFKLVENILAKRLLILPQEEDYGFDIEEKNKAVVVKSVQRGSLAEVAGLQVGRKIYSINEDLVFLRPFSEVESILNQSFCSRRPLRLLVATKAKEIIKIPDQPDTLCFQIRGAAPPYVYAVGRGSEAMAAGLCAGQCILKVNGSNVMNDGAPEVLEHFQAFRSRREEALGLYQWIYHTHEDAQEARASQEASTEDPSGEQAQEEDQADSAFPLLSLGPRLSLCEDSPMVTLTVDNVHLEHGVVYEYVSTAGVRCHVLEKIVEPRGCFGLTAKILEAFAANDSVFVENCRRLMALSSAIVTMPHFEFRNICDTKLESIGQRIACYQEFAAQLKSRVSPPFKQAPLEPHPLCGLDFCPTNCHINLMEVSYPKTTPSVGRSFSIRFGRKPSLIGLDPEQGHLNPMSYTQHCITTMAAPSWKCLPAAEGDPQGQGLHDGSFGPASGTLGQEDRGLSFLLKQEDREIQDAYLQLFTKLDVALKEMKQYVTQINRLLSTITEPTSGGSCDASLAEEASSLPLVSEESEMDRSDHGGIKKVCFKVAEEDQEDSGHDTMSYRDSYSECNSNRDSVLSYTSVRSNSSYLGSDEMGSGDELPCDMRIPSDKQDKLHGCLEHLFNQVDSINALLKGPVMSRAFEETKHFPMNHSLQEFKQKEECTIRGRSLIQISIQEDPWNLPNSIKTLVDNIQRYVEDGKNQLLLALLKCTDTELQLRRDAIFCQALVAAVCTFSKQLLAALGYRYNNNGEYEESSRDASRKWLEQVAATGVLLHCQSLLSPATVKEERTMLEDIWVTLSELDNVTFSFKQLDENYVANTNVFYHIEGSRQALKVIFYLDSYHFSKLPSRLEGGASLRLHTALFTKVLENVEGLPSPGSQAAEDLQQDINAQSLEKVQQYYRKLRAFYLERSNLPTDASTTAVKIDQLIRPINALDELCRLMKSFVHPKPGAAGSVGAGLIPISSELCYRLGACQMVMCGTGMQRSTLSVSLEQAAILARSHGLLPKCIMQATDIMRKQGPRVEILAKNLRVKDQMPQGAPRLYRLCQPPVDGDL
UniProt Q9H237: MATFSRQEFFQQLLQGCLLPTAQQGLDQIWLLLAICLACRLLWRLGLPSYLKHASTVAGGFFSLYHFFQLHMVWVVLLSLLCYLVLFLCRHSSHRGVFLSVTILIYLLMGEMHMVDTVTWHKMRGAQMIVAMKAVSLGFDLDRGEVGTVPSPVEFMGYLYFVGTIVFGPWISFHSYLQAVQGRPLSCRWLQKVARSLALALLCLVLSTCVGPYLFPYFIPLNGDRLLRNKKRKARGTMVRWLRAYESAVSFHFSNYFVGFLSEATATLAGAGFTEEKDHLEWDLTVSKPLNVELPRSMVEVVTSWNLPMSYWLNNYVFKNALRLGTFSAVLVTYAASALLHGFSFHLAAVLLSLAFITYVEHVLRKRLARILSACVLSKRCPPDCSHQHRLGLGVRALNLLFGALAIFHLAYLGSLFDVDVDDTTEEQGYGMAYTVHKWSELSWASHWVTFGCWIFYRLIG
UniProt O00232: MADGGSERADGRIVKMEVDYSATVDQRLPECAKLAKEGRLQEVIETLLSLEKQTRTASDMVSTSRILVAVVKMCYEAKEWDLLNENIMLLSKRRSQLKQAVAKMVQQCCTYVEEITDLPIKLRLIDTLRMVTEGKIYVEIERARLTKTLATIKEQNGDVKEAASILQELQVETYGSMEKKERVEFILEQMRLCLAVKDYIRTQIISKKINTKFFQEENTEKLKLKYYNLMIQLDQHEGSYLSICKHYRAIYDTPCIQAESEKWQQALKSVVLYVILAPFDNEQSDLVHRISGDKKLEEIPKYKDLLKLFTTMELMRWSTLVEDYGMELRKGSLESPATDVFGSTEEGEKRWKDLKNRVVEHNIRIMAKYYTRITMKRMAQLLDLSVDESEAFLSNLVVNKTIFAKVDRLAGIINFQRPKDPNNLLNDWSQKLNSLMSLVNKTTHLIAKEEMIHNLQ
UniProt Q96L50: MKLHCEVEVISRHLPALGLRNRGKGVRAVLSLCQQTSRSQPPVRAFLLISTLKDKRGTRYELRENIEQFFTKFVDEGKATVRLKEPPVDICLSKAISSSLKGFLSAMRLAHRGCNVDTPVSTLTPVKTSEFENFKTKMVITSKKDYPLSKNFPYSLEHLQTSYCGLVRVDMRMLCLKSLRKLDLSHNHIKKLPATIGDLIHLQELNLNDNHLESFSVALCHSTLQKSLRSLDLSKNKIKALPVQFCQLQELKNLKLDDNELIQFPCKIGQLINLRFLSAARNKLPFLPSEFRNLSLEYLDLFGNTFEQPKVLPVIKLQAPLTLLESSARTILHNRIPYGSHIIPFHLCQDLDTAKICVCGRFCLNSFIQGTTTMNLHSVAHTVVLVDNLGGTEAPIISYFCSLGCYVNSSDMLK
UniProt Q66LE6: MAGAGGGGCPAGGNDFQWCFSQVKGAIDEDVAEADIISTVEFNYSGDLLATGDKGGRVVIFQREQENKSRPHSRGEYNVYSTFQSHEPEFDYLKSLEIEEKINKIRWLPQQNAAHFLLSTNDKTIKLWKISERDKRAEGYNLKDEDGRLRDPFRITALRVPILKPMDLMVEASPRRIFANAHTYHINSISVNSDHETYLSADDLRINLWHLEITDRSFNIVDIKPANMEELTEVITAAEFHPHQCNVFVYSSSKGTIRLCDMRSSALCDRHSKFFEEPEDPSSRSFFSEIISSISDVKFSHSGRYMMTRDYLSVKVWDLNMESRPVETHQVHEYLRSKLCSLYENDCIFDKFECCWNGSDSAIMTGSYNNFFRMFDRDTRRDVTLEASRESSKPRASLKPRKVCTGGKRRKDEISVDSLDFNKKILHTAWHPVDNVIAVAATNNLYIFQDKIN
UniProt P30041: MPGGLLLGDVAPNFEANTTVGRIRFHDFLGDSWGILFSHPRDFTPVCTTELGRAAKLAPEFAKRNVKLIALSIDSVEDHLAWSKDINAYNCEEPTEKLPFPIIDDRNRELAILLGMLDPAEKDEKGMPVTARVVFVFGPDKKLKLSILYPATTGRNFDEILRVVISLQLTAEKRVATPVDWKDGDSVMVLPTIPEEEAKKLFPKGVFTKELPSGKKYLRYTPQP
UniProt O43447: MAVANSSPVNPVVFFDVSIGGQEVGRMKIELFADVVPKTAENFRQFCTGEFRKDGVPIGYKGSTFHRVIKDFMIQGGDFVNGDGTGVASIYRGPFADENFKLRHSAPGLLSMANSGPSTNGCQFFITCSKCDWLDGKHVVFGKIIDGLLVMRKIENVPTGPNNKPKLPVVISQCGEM

These targets were tested with COc1ccc(Cn2ccc3cc(C)c(C(=O)NO)cc32)cc1 (assay: dose-dependent thermal stabilisation call (2D-TPP, DLPTP, 10% FDR) (binary (1 = stabilised)); higher = stabilised by the compound). Details: system: HL-60 intact cells; concentration range 0.04-10 µM.
Procedure: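 2D thermal proteome profiling in intact HL-60 cells treated with BRD-3811 (0, 0.04, 0.29, 2, 10 uM) for 90 min at 37 C, then heated 3 min at one of 12 temperatures (42-63.9 C). Soluble protein was quantified by TMT10 MS. The value is the DLPTP call of the paper: dose-dependent thermal stabilisation over all temperatures at 10% FDR (F-test of a dose-response against a flat model); one experiment, one call per tested protein.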

Row | Target | dose-dependent thermal stabilisation call
1 | PPP1R14B (UniProt Q96C90) | inactive: 0
2 | POLR2F (UniProt P61218) | inactive: 0
3 | PREX1 (UniProt Q8TCU6) | inactive: 0
4 | PORCN (UniProt Q9H237) | inactive: 0
5 | PSMD12 (UniProt O00232) | inactive: 0
6 | PPIL5 (UniProt Q96L50) | inactive: 0
7 | PPP2R2D (UniProt Q66LE6) | inactive: 0
8 | PRDX6 (UniProt P30041) | inactive: 0
9 | PPIH (UniProt O43447) | inactive: 0
